# Test results taken from paper PMC6026121.
# B1: C-AtGRP-3-AD (conserved C-terminal region of AtGRP-3 fused to the GAL4 activation domain) (domain or fragment, UniProt Q9SL15 60-145)
# chain: GGGNYQGGGGNYQGGGGNYQGGGGRYQGGGGRYQGGGGRYQGGGGRQGGGGSGGSYCRHGCCYRGYNGCSRCCSYAGEAVQTQPGH
# Molecular target: HrpE-BD (Xanthomonas citri subsp. citri HrpE fused to the GAL4 DNA binding domain) (Xanthomonas citri subsp. citri)
# Experiment: two-hybrid; co-transformation of pOBD and pOAD plasmids in yeast strain PJ694a; growth on medium lacking W, L, H and A with 35 mM 3AT, 30 °C
binder,measurement,value
B1,binding,binds

# Results are given in words; binding and its absence hold for the method and conditions named. Binding can be weak; no strength is given. Sequences can lack the tags named with a protein.
